Experimental data as given in patent US20090312521A1 (priority 2004, published 2009).
Non-standard residues stand in square brackets, D forms with d. Residues, ends and D or L forms follow the SMILES beside them.

type: in vitro ADME, human; conditions: [MIC(1)/MIC(X)] × [% intact(X)/% intact(1)]

Compared with `CC[C@H](C)[C@H](NC(=O)[C@@H]1CCCN1C(=O)[C@H](CCCNC(=N)N)NC(=O)[C@@H]1CCCN1C(=O)[C@H](Cc1cnc[nH]1)NC(=O)[C@H](CO)NC(=O)[C@@H](NC(=O)[C@@H]1CCCN1C(=O)[C@H](CCCNC(=N)N)NC(=O)[C@@H]1CCCN1C(=O)[C@H](CO)NC(=O)[C@H](Cc1ccc(O)cc1)NC(=O)[C@@H]1CCCN1C(=O)[C@H](CCCNC(=N)N)NC(=O)[C@@H]1CCCN1C(=O)[C@H](CCCCN)NC(=O)CN)[C@@H](C)O)C(=O)N[C@@H](CCCNC(=N)N)C(=O)N[C@H](C(=O)O)C(C)C` [Peptide 1, GKPRP YSPRP TSHPR PIRV, reference compound] (H-GKPRPYSPRPTSHPRPIRV-OH), `CC[C@H](C)[C@H](NC(=O)[C@@H]1CCCN1C(=O)[C@H](CCCNC(=N)N)NC(=O)[C@@H]1CCCN1C(=O)[C@H](Cc1c[nH]cn1)NC(=O)[C@H](CO)NC(=O)[C@@H](NC(=O)[C@@H]1CCCN1C(=O)[C@H](CCCNC(=N)N)NC(=O)[C@@H]1CCCN1C(=O)[C@H](CO)NC(=O)[C@@H](Cc1ccc(O)cc1)NC(=O)[C@@H]1CCCN1C(=O)[C@H](CCCNC(=N)N)NC(=O)[C@@H]1CCCN1C(=O)[C@H](CCCCN)NC(=O)CN)[C@@H](C)O)C(=O)N[C@@H](CCCNC(=N)N)C(=O)N[C@H](C(=O)O)C(C)C` [Peptide 6, GKPRP DYSPRP TSHPR PIRV] (H-GKPRP[dY]SPRPTSHPRPIRV-OH; N-terminus assumed) is higher in index: 1.0 for the first, 5 for the second.

Compared with `CC[C@H](C)[C@H](NC(=O)[C@@H]1CCCN1C(=O)[C@H](CCCNC(=N)N)NC(=O)[C@@H]1CCCN1C(=O)[C@H](Cc1c[nH]cn1)NC(=O)[C@H](CO)NC(=O)[C@@H](NC(=O)[C@@H]1CCCN1C(=O)[C@H](CCCNC(=N)N)NC(=O)[C@@H]1CCCN1C(=O)[C@@H](NC(=O)[C@H](Cc1ccc(O)cc1)NC(=O)[C@@H]1CCCN1C(=O)[C@H](CCCNC(=N)N)NC(=O)[C@@H]1CCCN1C(=O)[C@H](CCCCN)NC(=O)CN)[C@@H](C)O)[C@@H](C)O)C(=O)N[C@@H](CCCNC(=N)N)C(=O)N[C@H](C(=O)O)C(C)C` [Peptide 4, GKPRP YTPRP TSHPR PIRV] (H-GKPRPYTPRPTSHPRPIRV-OH; N-terminus assumed), `CC[C@H](C)[C@H](NC(=O)[C@@H]1CCCN1C(=O)[C@H](CCCNC(=N)N)NC(=O)[C@@H]1CCCN1C(=O)[C@H](Cc1c[nH]cn1)NC(=O)[C@H](CO)NC(=O)[C@@H](NC(=O)[C@@H]1CCCN1C(=O)[C@H](CCCNC(=N)N)NC(=O)[C@@H]1CCCN1C(=O)[C@@H](NC(=O)[C@H](Cc1ccccc1)NC(=O)[C@@H]1CCCN1C(=O)[C@H](CCCNC(=N)N)NC(=O)[C@@H]1CCCN1C(=O)[C@H](CCCCN)NC(=O)CN)[C@@H](C)O)[C@@H](C)O)C(=O)N[C@@H](CCCNC(=N)N)C(=O)N[C@H](C(=O)O)C(C)C` [Peptide 5, GKPRP FTPRP TSHPR PIRV] (H-GKPRPFTPRPTSHPRPIRV-OH; N-terminus assumed) is lower in index: 19 for the first, 17 for the second.

Compound `CC[C@H](C)[C@H](NC(=O)[C@@H]1CCCN1C(=O)[C@H](CCCNC(=N)N)NC(=O)[C@@H]1CCCN1C(=O)[C@H](Cc1c[nH]cn1)NC(=O)[C@H](CO)NC(=O)[C@@H](NC(=O)[C@@H]1CCCN1C(=O)[C@H](CCCNC(=N)N)NC(=O)[C@@H]1CCCN1C(=O)[C@H](CO)NC(=O)[C@H](Cc1ccccc1)NC(=O)[C@@H]1CCCN1C(=O)[C@H](CCCNC(=N)N)NC(=O)[C@@H]1CCCN1C(=O)[C@H](CCCCN)NC(=O)CN)[C@@H](C)O)C(=O)N[C@@H](CCCNC(=N)N)C(=O)N[C@H](C(=O)O)C(C)C` [Peptide 3, GKPRP FSPRP TSHPR PIRV] (H-GKPRPFSPRPTSHPRPIRV-OH; N-terminus assumed) has an index of 12.
